The source of these data is the supplement of paper PMC10849652.

Protein sequences, listed by entry. Tags and fused reporters are not part of them. Lines headed by an entry give the natural chain unless they say otherwise; changes in a name come on top.
UniProt Q9H4A6: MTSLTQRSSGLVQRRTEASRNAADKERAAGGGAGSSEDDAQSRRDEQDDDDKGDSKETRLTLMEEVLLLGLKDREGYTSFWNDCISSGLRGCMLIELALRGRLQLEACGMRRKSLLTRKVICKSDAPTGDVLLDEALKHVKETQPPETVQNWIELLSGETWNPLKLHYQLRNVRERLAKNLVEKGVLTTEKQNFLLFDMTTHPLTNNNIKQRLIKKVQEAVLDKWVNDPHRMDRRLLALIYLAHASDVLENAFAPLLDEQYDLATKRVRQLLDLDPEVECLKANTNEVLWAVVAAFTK
UniProt Q8IXQ4: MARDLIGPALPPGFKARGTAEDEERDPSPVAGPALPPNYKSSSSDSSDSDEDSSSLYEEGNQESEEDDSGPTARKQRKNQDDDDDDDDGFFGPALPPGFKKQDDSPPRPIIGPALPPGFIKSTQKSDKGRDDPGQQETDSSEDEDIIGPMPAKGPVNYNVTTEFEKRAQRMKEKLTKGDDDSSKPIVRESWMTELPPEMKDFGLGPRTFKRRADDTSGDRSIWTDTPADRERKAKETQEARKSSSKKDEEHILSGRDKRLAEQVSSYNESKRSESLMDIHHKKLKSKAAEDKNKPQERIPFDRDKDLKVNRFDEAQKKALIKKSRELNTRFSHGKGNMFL
UniProt Q9BYB4: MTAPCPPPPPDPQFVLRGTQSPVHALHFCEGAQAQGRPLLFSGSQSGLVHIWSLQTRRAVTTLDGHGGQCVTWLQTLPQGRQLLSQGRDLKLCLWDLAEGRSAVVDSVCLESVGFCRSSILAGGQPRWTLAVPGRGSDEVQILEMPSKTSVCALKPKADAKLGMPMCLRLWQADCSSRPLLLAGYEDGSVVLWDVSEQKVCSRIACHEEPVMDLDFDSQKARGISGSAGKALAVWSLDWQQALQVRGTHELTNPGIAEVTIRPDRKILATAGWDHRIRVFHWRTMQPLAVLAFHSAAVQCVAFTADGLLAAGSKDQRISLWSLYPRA
UniProt P15586: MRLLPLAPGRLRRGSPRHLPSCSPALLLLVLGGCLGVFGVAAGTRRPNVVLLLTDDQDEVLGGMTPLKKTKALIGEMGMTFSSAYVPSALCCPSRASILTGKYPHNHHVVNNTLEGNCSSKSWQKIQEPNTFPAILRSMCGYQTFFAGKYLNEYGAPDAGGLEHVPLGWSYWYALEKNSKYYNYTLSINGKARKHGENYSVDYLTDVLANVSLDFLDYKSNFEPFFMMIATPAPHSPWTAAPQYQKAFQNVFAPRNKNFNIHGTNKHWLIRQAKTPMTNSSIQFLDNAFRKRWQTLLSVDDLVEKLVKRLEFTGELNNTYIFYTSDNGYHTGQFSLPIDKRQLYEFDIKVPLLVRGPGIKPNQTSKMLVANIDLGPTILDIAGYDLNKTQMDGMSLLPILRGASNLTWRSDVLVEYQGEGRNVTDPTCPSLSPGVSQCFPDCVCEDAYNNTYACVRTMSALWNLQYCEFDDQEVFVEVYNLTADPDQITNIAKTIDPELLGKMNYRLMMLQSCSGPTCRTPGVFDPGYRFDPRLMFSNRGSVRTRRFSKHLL
UniProt Q8TDQ7: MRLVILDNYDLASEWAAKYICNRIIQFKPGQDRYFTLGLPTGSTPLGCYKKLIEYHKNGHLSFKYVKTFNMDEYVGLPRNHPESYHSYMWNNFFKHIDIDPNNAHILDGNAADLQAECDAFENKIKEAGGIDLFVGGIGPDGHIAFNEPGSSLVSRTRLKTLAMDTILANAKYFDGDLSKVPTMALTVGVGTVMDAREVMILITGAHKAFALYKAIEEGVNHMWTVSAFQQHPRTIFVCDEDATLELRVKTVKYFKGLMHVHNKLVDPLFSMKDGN
UniProt P63218: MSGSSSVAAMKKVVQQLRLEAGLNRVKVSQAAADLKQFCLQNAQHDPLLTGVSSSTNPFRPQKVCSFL
UniProt Q14789: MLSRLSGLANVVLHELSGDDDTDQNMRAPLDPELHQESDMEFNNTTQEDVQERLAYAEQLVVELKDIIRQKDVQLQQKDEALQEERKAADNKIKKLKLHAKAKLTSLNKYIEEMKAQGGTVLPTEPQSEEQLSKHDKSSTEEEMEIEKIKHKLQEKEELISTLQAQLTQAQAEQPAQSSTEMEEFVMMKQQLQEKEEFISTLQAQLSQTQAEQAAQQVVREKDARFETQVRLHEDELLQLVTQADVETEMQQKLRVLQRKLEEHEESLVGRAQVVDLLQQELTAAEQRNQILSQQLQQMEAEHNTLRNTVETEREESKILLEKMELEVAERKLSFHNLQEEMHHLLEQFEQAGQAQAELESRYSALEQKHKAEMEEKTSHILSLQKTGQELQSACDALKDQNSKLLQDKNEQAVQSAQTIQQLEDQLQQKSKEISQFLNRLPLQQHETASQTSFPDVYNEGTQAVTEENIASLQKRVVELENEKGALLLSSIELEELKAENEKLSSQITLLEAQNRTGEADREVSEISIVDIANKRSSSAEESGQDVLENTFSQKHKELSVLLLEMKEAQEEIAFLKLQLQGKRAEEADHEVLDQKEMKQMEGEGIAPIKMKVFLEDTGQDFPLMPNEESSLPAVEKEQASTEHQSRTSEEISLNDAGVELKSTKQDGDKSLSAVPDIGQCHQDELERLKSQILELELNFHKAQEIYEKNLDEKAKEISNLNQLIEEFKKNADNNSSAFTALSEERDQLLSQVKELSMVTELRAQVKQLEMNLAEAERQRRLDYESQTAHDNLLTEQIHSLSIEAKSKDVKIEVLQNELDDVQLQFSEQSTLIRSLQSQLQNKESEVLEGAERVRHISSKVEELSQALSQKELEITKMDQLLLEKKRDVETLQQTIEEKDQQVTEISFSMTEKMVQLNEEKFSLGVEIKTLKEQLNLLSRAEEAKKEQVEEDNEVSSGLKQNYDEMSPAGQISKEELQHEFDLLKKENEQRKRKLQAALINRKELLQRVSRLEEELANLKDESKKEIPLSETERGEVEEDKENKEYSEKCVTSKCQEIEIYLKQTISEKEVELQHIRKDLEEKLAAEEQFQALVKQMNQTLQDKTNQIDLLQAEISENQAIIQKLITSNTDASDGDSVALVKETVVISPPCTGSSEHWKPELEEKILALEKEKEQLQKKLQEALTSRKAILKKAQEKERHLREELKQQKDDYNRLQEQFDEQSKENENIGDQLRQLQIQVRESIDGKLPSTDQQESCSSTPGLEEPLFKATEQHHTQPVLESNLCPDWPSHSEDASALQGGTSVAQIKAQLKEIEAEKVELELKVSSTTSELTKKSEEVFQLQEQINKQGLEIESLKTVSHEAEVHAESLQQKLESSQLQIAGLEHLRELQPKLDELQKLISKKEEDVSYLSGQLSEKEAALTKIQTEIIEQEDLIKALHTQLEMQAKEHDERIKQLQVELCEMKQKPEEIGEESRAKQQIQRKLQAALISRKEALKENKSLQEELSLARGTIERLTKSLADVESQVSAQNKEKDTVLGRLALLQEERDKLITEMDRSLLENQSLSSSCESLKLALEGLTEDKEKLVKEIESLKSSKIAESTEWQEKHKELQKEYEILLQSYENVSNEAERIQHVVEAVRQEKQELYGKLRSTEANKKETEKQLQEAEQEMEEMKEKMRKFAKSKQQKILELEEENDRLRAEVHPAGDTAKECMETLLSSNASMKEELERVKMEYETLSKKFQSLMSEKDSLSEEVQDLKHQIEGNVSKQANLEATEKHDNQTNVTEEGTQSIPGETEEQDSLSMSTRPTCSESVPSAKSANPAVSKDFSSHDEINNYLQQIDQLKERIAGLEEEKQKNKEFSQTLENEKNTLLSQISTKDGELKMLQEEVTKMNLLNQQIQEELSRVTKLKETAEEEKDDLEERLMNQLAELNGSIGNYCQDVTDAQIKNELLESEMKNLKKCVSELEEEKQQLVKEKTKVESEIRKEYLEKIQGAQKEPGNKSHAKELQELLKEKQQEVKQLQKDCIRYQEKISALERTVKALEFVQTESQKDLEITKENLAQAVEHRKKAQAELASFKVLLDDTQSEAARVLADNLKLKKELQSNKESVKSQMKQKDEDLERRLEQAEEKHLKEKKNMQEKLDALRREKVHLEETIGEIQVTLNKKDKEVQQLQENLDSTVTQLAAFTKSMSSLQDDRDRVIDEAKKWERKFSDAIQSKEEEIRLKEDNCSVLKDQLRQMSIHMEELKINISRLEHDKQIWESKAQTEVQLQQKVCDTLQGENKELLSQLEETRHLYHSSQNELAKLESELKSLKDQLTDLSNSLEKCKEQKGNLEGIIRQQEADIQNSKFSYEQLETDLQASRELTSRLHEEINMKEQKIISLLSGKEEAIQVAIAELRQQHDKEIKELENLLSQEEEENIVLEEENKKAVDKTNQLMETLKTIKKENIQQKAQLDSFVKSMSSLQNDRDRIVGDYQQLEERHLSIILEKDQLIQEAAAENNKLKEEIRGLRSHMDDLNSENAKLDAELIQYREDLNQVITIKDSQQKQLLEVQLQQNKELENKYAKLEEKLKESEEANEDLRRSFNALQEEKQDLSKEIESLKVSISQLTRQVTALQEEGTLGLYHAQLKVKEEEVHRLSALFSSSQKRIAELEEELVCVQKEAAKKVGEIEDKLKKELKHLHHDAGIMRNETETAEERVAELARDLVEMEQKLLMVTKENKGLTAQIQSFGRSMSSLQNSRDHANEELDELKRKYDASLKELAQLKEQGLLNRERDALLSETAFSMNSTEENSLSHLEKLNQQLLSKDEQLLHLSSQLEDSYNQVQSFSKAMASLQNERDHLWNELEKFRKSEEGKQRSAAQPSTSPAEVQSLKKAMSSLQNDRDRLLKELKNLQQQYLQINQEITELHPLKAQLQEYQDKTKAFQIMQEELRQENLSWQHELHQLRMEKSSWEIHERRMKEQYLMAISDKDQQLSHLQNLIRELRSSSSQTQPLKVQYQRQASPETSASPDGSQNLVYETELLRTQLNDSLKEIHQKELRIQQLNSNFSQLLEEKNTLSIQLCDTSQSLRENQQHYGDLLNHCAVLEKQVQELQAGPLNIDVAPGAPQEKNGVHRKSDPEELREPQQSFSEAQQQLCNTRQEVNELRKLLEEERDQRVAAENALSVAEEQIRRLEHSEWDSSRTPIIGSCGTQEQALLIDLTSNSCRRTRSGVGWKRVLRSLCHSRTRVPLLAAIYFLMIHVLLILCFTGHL
UniProt P62993, whole entry, looked up: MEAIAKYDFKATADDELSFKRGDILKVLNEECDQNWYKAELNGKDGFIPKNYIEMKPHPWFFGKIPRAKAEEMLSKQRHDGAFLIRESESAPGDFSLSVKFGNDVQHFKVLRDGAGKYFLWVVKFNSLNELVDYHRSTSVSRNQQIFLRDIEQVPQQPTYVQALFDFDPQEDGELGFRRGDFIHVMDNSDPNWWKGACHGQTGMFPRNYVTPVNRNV
UniProt Q9NWU2, whole entry, looked up: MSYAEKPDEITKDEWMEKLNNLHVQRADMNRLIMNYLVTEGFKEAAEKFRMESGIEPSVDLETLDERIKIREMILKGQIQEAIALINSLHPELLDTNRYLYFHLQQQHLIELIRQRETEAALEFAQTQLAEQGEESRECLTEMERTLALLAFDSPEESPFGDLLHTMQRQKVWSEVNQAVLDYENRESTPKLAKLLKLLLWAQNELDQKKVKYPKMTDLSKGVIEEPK
UniProt Q9P2T1: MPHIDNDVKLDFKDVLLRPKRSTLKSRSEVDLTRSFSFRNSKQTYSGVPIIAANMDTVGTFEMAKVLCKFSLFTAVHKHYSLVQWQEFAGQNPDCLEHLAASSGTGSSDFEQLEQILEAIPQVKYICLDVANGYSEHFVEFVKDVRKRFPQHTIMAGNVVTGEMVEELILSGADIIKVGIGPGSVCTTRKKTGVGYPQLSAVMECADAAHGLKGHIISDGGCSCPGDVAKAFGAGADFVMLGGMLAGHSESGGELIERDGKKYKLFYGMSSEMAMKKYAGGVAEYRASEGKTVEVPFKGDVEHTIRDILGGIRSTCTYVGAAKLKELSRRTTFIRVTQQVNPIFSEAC
UniProt O43292: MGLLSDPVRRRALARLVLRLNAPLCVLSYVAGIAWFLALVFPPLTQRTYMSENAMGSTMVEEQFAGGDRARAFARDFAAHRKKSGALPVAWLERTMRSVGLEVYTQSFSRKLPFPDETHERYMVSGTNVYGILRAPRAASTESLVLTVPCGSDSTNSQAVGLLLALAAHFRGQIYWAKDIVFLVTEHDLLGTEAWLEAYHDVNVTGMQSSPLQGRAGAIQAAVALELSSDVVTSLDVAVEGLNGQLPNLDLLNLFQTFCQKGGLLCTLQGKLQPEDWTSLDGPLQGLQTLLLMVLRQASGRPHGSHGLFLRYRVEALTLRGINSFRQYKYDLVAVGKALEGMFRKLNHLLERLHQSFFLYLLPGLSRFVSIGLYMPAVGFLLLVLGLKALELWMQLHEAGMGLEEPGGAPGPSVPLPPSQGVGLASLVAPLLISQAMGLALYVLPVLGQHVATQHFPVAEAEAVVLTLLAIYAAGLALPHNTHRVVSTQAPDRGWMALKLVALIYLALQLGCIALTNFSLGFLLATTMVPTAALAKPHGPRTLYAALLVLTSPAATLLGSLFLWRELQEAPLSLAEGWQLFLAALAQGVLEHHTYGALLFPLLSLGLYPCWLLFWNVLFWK

Common to all, as to assay: log2 fold change, soluble protein after heating vs DMSO (PISA); higher = thermal stabilisation; K562 cells, 10 uM, 30 min; active = over 0.2 and 3.5 SD of the protein, either way, in both replicates (recomputed)
Compound in assay [1]: COC1=CC=C(C=C1)CN2C=CC3=C2C=C(C=C3)C(=O)NO
The method in brief:
(§1)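 Soluble protein was defined as the supernatant after 21,000xg for 90 min. It came from K562 cells at 2×10^6 cells/mL given 10 μM compound for 30 min, heated in aliquots for 3 min across 48°C-58°C, pooled, and extracted in PBS with 0.5% NP-40 at 4°C, and was quantified by TMTpro 16plex LC-MS/MS with equalised channel sums. Thermal stability against control samples, from duplicates, is reported as log2 fold change.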

Compound in the next assay: CON(C)C(=O)N1N=C(c2cc(F)ccc2F)S[C@@]1(CCCN)c1ccccc1 [filanesib]
The method in brief:
as §1

Compound in a further assay: CO[C@H]1C[C@@H]2CC[C@@H](C)[C@@](O)(O2)C(=O)C(=O)N2CCCC[C@H]2C(=O)O[C@H]([C@H](C)C[C@@H]2CC[C@H](n3cnnn3)[C@H](OC)C2)CC(=O)[C@H](C)/C=C(\C)[C@@H](O)[C@@H](OC)C(=O)[C@H](C)C[C@H](C)/C=C/C=C/C=C/1C [zotarolimus]
In a few lines:
as §1

Compound in another assay: COc1cc(C(=O)O)ccc1NC(=O)[C@@H]1N[C@@H](CC(C)(C)C)[C@](C#N)(c2ccc(Cl)cc2F)[C@H]1c1cccc(Cl)c1F [idasanutlin]
The method in brief: as §1

Compound in the next assay: COc1cc(Nc2ncc3c(n2)-c2ccc(Cl)cc2C(c2c(F)cccc2OC)=NC3)ccc1C(=O)O [alisertib]
In a few lines: as §1

Compound in assay [2]: COc1cc2nc(-c3cc(F)ccc3O)nc(N[C@@H]3CNC[C@H]3C(C)(C)O)c2cc1OC
In a few lines:
as §1

Compound in another assay: COc1cc2ncnc(Nc3ccc(F)c(Cl)c3)c2cc1OCCCN1CCOCC1 [gefitinib]
In a few lines: as §1

Compound in assay [3]: COc1cccc2cc(-c3nc([C@H]4CC[C@H](C(=O)O)CC4)n4ncnc(N)c34)[nH]c12
The method in brief:
as §1

Compound in a further assay: CS(=O)(=O)CCNCc1ccc(-c2ccc3ncnc(Nc4ccc(OCc5cccc(F)c5)c(Cl)c4)c3c2)o1 [lapatinib]
The method in brief:
as §1

Compound in a further assay: CS(=O)(=O)N1CCN(Cc2cc3nc(-c4cccc5[nH]ncc45)nc(N4CCOCC4)c3s2)CC1 [pictilisib]
In a few lines:
as §1

Some of the results follow.

For GOLPH3 (UniProt Q9H4A6), the log2 fold change in [1] was inactive: 0.011; with filanesib, inactive: -0.03; with zotarolimus it was inactive: 0.048; with idasanutlin it was inactive: -0.057; with alisertib, inactive: -0.024; in [2], inactive: 0.131. The log2 fold change was inactive: 0.023 with gefitinib, inactive: 0.012 in assay [3], inactive: -0.055 with lapatinib and inactive: -0.051 with pictilisib.
GPALPP1 (UniProt Q8IXQ4): the log2 fold change was inactive: -0.064 in assay [1]; inactive: 0.017 with filanesib; inactive: -0.012 in the assay with zotarolimus; inactive: -0.029 with idasanutlin; inactive: 0 with alisertib; inactive: 0.061 in assay [2]. Also, the log2 fold change with gefitinib was inactive: -0.01; in assay [3], inactive: 0.044; with lapatinib it was inactive: 0.018; in the assay with pictilisib, inactive: 0.005.
Regarding GNB1L (UniProt Q9BYB4), the log2 fold change in [1] is inactive: 0.007; with filanesib, inactive: 0.003; in the assay with zotarolimus, inactive: -0.037; with idasanutlin, inactive: -0.026; with alisertib, inactive: -0.044; in [2], inactive: 0.047. Further, the log2 fold change with gefitinib was inactive: 0.011; in [3], inactive: 0.041; in the assay with lapatinib, inactive: -0.052; with pictilisib, inactive: 0.024.
As to GPI (UniProt P06744), the log2 fold change in assay [1] is inactive: -0.059; with filanesib it was inactive: -0.059; with zotarolimus, inactive: 0.02; with idasanutlin it was inactive: -0.017; with alisertib, inactive: -0.031; in [2], inactive: 0. Moreover, the log2 fold change is inactive: 0.011 with gefitinib, inactive: 0.041 in [3], inactive: -0.047 with lapatinib and inactive: -0.052 with pictilisib.
With GPRIN1 (UniProt Q7Z2K8), the log2 fold change is inactive: -0.03 in assay [1]; inactive: 0.07 with filanesib; inactive: -0.053 in the assay with zotarolimus; inactive: 0.025 in the assay with idasanutlin; inactive: -0.02 with alisertib; inactive: 0.127 in assay [2]. The log2 fold change in the assay with gefitinib was inactive: 0.074; in assay [3] it was inactive: 0.087; with lapatinib, inactive: -0.013; with pictilisib, inactive: 0.052.
Consider GNS (UniProt P15586), for which the log2 fold change in assay [1] was inactive: -0.014; with filanesib it was inactive: -0.041; with zotarolimus, inactive: -0.05; with idasanutlin, inactive: -0.002; with alisertib, inactive: -0.034; in assay [2], inactive: -0.011. Moreover, the log2 fold change with gefitinib is inactive: 0.017; in assay [3] it was inactive: 0.039; in the assay with lapatinib, inactive: -0.024; with pictilisib it was inactive: 0.014.
On to GNPDA2 (UniProt Q8TDQ7), for which the log2 fold change in assay [1] was inactive: -0.053; in the assay with filanesib, inactive: -0.027; with zotarolimus, inactive: 0.087; in the assay with idasanutlin, inactive: -0.054; with alisertib, inactive: -0.038; in [2], inactive: 0.046. In addition, the log2 fold change with gefitinib was inactive: -0.024; in assay [3], inactive: 0.059; with lapatinib, inactive: 0.029; with pictilisib, inactive: 0.072.
For GNG5 (UniProt P63218), the log2 fold change in assay [1] was inactive: 0.082; with filanesib, inactive: 0.086; with zotarolimus, inactive: -0.016; with idasanutlin, inactive: 0.065; in the assay with alisertib, inactive: -0.146; in [2] it was inactive: -0.022. Besides, the log2 fold change was inactive: 0.224 in the assay with gefitinib, inactive: 0.079 in assay [3], inactive: -0.006 with lapatinib and inactive: -0.087 in the assay with pictilisib.
For GRWD1 (UniProt Q9BQ67), the log2 fold change is inactive: -0.054 in [1]; inactive: 0.337 with filanesib; inactive: 0.046 in the assay with zotarolimus; inactive: 0.21 with idasanutlin; inactive: -0.113 with alisertib; inactive: -0.049 in assay [2]. Also, the log2 fold change with gefitinib is inactive: 0.089; in [3], inactive: -0.16; with lapatinib it was inactive: 0.096; with pictilisib, inactive: -0.018.
In the case of GOLGB1 isoform 2 (UniProt Q14789), the log2 fold change was inactive: -0.16 in [1]; active: 0.337 with filanesib; inactive: -0.04 with zotarolimus; inactive: 0.066 in the assay with idasanutlin; inactive: -0.069 with alisertib; inactive: 0.072 in [2]. Further, the log2 fold change with gefitinib was inactive: -0.02; in assay [3], inactive: -0.051; in the assay with lapatinib it was inactive: 0.046; with pictilisib, inactive: 0.066.
Take GRB2 (UniProt P62993): the log2 fold change is inactive: -0.036 in [1]; inactive: -0.112 with filanesib; inactive: -0.001 with zotarolimus; inactive: -0.054 in the assay with idasanutlin; inactive: -0.071 with alisertib; inactive: -0.028 in assay [2]. In addition, the log2 fold change is inactive: 0.027 in the assay with gefitinib, inactive: 0.01 in assay [3], inactive: -0.009 with lapatinib and inactive: -0.007 with pictilisib.
Consider GID8 (UniProt Q9NWU2), for which the log2 fold change in assay [1] is inactive: -0.07; with filanesib, inactive: 0.071; in the assay with zotarolimus it was inactive: 0.033; with idasanutlin, inactive: 0.022; with alisertib, inactive: -0.018; in assay [2], inactive: -0.04. The log2 fold change with gefitinib was inactive: -0.009; in [3], inactive: -0.024; with lapatinib, inactive: -0.004; in the assay with pictilisib, inactive: -0.051.
Consider GMPR2 isoform 2 (UniProt Q9P2T1), for which the log2 fold change is inactive: 0.005 in [1]; inactive: -0.007 in the assay with filanesib; inactive: -0.005 with zotarolimus; inactive: -0.001 with idasanutlin; inactive: -0.016 in the assay with alisertib; inactive: 0.004 in assay [2]. Further, the log2 fold change was inactive: 0.006 with gefitinib, inactive: 0.058 in assay [3], inactive: -0.013 in the assay with lapatinib and inactive: -0.007 with pictilisib.
GPAA1 (UniProt O43292): the log2 fold change in assay [1] was inactive: -0.014; in the assay with filanesib, inactive: -0.015; in the assay with zotarolimus it was inactive: 0.025; with idasanutlin it was inactive: -0.061; with alisertib it was inactive: -0.041; in [2], inactive: 0.085. The log2 fold change with gefitinib is inactive: -0.024; in [3], inactive: 0.002; with lapatinib, inactive: -0.024; with pictilisib, inactive: 0.004.
